PubChem BioAssay AID2685 (National Center for Advancing Translational Sciences (NCATS), 2010)
Out of some 320,000 compounds screened, about 2,100 (0.66%) were called active. The inconclusive results got no clear call from the source; some entries with a clear call stand among them for comparison. Calls follow the shape of the dose curve; as a rule, active = well fitted inhibition curve with a large enough effect in the signal ratio, with a control signal flat (not every such curve was filed as active); inconclusive = small, poorly fitted or top-dose-only effect, or effect the other way, or a change in a side signal; inactive = flat fitted curve, though single readings scatter; the % refers to the signal ratio. Potencies of inconclusive entries are doubtful fits and often do not repeat.

Experiment: qHTS Assay for Lipid Storage Modulators in Drosophila S3 Cells
Settings: BODIPY lipid droplet fluorescence, 18-24 h, cells fed with added oleic acid; lipid storage change, negative = inhibition: at 46.1 µM (top of the series) unless noted
Text: NIH Molecular Libraries Probe Production Centers Network [MLPCN] NIH Chemical Genomics Center [NCGC] MLPCN Grant: 1 R03 MH085686-01 Assay Submitter (PI): Beller, Mathias; Max-Planck-Institut fur Biophysikalische Chemie NCGC Assay Overview: Storing lipids as a reservoir for energy or the anabolism of elementary metabolites is a common feature of probably all cells and is conserved from bacteria to humans. The universal cellular lipid storage organelle is the so-called lipid storage droplet (LD). Although ubiquitous, LDs share a simple structure composed of a hydrophobic core that harbors the storage lipids, which is shielded by a droplet-specific phospholipid monolayer to which proteins are attached. The current model of LD biogenesis involves an incorporation of the lipid core into the membrane leaflets of the endoplasmic reticulum (ER) followed by a subsequent budding-like maturation of a LD, which ultimately pinches off. Once released, LD volume can increase by localized lipogenesis or fusion of existing droplet. Storage lipids are re-mobilized enzymatically by lipase activity. Lipase regulation in the adipocyte is heavily studied and involves multiple components including catecholamine signaling, the LD-associated proteins Perilipin and comparative gene identification (CGI-58) and at least two lipases named hormone sensitive lipase (HSL) and adipocyte triglyceride lipase (ATGL). LD regulation outside of the adipocyte is poorly understood and only few components are known. However, there is an urgent need to learn more about ectopic fat depots as mislocalized storage of lipids, for example in the liver or muscle, is an eminent health problem associated with insulin resistance or the metabolic syndrome. We developed a laser-scanning cytometer assay to enable 1,536-well screening and combined the results of the small molecules screen with an RNAi database based on lipid storage.
Triacsin C (Sigma-Aldrich T-4540), an inhibitor of long-chain fatty acyl CoA synthetase that blocks synthesis of triglycerides, was used as a positive control for lipid under-storage. A total of 23 nL of compound solution of different concentrations were transferred to the assay plates using a Kalypsys pin tool equipped with a 1,536-pin array containing 10-nL slotted pins (FP1S10, 0.457-mm diameter, 50.8 mm long; V&P Scientific). One microliter of oleic acid (400 uM) was added, and the plate was lidded with stainless steel rubber gasket lined lids containing pinholes. […] Fluorescence was detected by excitation of the fluorophores with a 488-nm laser on an Acumen Explorer (TTP Lab Tech). The total intensity in channel 2 (500-530 nm) reflected lipid droplet accumulation. Cells were detected using channel 3 (575-640 nm) with 5-um width and 100-um depth filters. The ratio of the number of objects in PMT channel 2 over the number of objects in PMT channel 3 was also calculated. Percent activity was computed relative to an internal control (100% inhibited lipid droplet deposition due to the presence of 20 uM Triacsin C), which was added to 32 wells/plate.
% is scaled to controls: 0 for no effect and ±100 for the full control effect; potency is read from the fitted curve at half-maximal effect.

Structure (SMILES)	Potency	lipid storage change, negative = inhibition
COc1ccc(-n2ncc3c2CC(C)(C)CC3NC(=O)c2ccoc2C)cc1 (configuration not stated)	inconclusive: 18.4 µM [falling, single point]	–
CCc1ccc(CCC(=O)Nc2ccc(Cl)cc2)o1	–	inconclusive: 5.38%
COCCNC(=O)c1ccccc1NC(=O)c1cc(OC)cc(OC)c1	–	inconclusive: 25%
O=C(NCCCN1CCOCC1)c1ccc2c(c1)N(Cc1ccccc1F)C(=O)c1ccccc1S2=O (configuration not stated)	inconclusive: 6.51 µM [activator, single point]	–
Nc1c(C(=O)Nc2ccccc2F)sc2nc(-c3ccco3)ccc12	–	inconclusive: -12%
COc1ccc(S(=O)(=O)N2CCOCC2)cc1C(=O)Nc1cc(C)on1	–	inconclusive: 49.5%
CC(C)C(=O)NC(CC(=O)O)c1ccccc1 (configuration not stated)	–	inconclusive: -3.06%
CCNc1nc(NC(C)C)nc(Oc2ccc(OCCOc3ccccc3)nn2)n1	inconclusive: 16.4 µM [falling, single point]	–
O=C(CCc1nnc(Cc2ccc3c(c2)OCO3)o1)NCc1nc2ccccc2s1	–	inconclusive: -18.8%
COC(=O)Cn1c(=NC(=O)c2nc3ccccc3s2)sc2cc(S(N)(=O)=O)ccc21	–	inconclusive: 75.9%
Cc1ncoc1C(=O)Nc1cccc(Cl)c1	–	inconclusive: 38.7%
COC(=O)CCNC(=O)CCc1ccc(S(=O)(=O)N2CCCCCC2)cc1	–	inconclusive: 15.7%
CCC(=O)Nc1ccc(NC(=S)NC(=O)/C=C/c2ccccc2)cc1	inconclusive: 3.26 µM [falling, full curve]	–
Cc1ccsc1C1Nc2ccccc2C(=O)N1O (configuration not stated)	–	inconclusive: -4.77%
O=C(Cc1ccccc1[N+](=O)[O-])NNC(=O)c1cccs1	–	inconclusive: -45.8%
Cc1cc(C)c(NC(=O)CCN2C(=O)c3ccccc3S2(=O)=O)c(C)c1	–	inconclusive
COC(=O)Cn1c(=O)sc2ccccc21	–	inconclusive: -0.156%
Cc1c(/C=N/NC(=O)c2cc(Br)ccc2O)c(=O)n(C)c(=O)n1C	active: 5.8 µM	–
Cc1ccc(/C=C2\SC(=O)N(CCNC(=O)C3CSC4(C)CCC(=O)N34)C2=O)cc1 (configuration not stated)	inconclusive: 29.1 µM [falling, single point]	–
COC(=O)CSc1nc2[nH]ncc2c(=O)[nH]1	inconclusive: 7.31 µM [falling, full curve, poor fit]	–
O=S1(=O)CCOC[C@H](c2ccccc2)N1Cc1ccccc1F	inconclusive: 4.11 µM [activator, partial curve]	–
Cc1cc(OCC(=O)NCCCN2CCOCC2)c2c(C)cc(=O)oc2c1	–	inconclusive: 83.6%

Single records (already shown).
`O=S1(=O)CCOC[C@H](c2ccccc2)N1Cc1ccccc1F` is listed as Potency: inconclusive: 4.11 µM [activator, partial curve]
`COC(=O)Cn1c(=O)sc2ccccc21` is listed as lipid storage change, negative = inhibition: inconclusive: -0.156%
